This note sets out measurements from paper PMC11139207.

This data set deals with T1, MSMEG_5860 (Mycobacterium smegmatis MC2 155) (UniProt A0R4J9).
T1 sequence (looked up): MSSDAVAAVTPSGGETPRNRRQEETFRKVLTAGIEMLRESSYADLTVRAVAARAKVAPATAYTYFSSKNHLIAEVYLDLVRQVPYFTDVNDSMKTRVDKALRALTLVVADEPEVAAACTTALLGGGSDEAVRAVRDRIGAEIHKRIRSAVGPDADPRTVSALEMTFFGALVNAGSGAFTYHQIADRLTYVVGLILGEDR
Briefly: EMSA. The conditions noted are these: room temperature, 20 min, binding buffer not given (as described previously), protein storage buffer 20 mM Tris-HCl, 100 mM NaCl, 1 mM DTT, 10% glycerol, recombinant protein, residues 1-199, protein details: N-terminal His6 (pET28a), probe letters rebuilt from the primers and the genome. (A gel shift assay detects complexes by their altered migration in electrophoresis.)

A negative result means that nothing was seen under these conditions. Protein sequences can lack the tags named with them.

For the sequence “GGAGGAGAGCCTCCCATAGCTGCTGTGGCGAGTTGATTGCTCCAGGAAGTCTGCAAGCCATTCCGATGATGGCAACAGGAGCAACACAATTTTGAGTCAAAGCTTCCCCTACTAATGACGCGATCGGCGTACTTAGTACCACGGCCCGTATGCCACATGCCATCCGAGAAAAGCCGTGGCGAGGGGGGTTTTATTCGCTTTTCCGTAATCCGCCGCGGATCCAGCAATGCGCCATTGTTTAATGGCCGGACAAGATCAGCAATCGATCTTGATTTACGGTGACGTAAAACGCTAGTAGGGCTATCAAAACCCGGTAACAGTACCTTTTCAAAGTT (double strand) [S1 (MSMEG_4727p)]”, the binding result is given as “no binding”.
